For at least one compound, name, drawing or mass did not settle the structure.
How the values were obtained:
[1] = Body weight, food intake and relative sizes of organs and tissues of mice fed alcohol liquid diet; format: in vivo, C57/BL/6J (B6) mice; details: SLM group (150 mg/kg-bw silymarin) compared to EtOH group, p<0.05
Method: Forty eight male C57/BL/6J (B6) mice of 8-week old were purchased from the Laboratory Animal Center of National Taiwan University. The body weight of these B6 mice were approximately 19 g to 21 g. Two mice were housed in one cage in an animal room at 22±2° C. with a 12/12 hr light-dark cycle. After one week of acclimation, the mice were randomly divided into 6 groups:
(a) The control group (the CON group): administered with the control liquid diet and 0.2 mL ddH2O by oral gavage.
(b) The ethanol group (the EtOH group): administered with the Lieber-DeCarli regular ethanol diet and 0.2 mL ddH2O by oral gavage.
(c) The composition of the chicken liver hydrolysates with low dosage (The CLH-L group): administered with the Lieber-DeCarli regular ethanol diet and 80 mg/kg-body weight (bw) of the composition of the chicken liver hydrolysates in 0.2 mL ddH2O by oral gavage. […]
The animal experiment lasted for 8 weeks; the body weight of each mouse was recorded at the beginning and the end of the experiment. The daily liquid feed (mL) intakes as a food intake of each mouse was calculated. […]
The experiment was conducted by a complete randomized design. […] The data was analyzed by one way-analysis of variance (ANOVA) and Fisher's Least Significant Different test to distinguish significant differences among groups. […]

[2] = tested on: mice fed with alcohol liquid diets; test: Histopathological examination (hematoxylin and eosin) and steatosis score of mouse livers; format: in vivo, C57/BL/6J (B6) mice; details: SLM group (150 mg/kg-bw silymarin), ethanol diet, FIG. 3(A)

In the case of COc1cc(C2Oc3cc([C@H]4Oc5cc(O)cc(O)c5C(=O)[C@@H]4O)ccc3OC2CO)ccc1O (some centres unmarked) [SLM, silymarin], the “relative sizes of spleen, perirenal fat tissue and epididymal fat tissue” value [1] is reported as “apparently decreased” and the “appearances of hepatocytes (hematoxylin and eosin)” value [2] is reported as “quite similar to the CON group”.
